Substitutions are numbered along the chain they refer to. These are yes or no findings as the source states them, for the method shown. For part of these data: Binding can be weak; no strength is given.
How the values were obtained:
Experiment in all cases: two-hybrid; AH109 yeast; baits in pGBT9, prey OCA7 in pGAD424; growth on SD -L-W-H shows interaction, growth with 3-amino-1,2,4-triazole stronger interaction; 72 h at 30 °C
[1] = biological target: T1, Rab32 WT in pGBT9, yeast two-hybrid bait (UniProt Q13637)
T1 sequence: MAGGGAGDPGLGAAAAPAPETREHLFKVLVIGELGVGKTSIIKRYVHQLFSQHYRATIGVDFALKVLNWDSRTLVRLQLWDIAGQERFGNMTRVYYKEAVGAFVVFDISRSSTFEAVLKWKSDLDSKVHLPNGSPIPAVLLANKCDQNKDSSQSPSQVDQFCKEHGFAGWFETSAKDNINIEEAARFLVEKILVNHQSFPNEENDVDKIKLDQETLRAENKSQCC

[2] = biological target: T2, Rab32 Q85L (constitutively active, GTP locked) in pGBT9 (UniProt Q13637)
T2 sequence: T1 sequence with Q85L

[3] = biological target: T3, AP1M1 in pGBT9, yeast two-hybrid bait (human) (UniProt Q9BXS5)
T3 sequence: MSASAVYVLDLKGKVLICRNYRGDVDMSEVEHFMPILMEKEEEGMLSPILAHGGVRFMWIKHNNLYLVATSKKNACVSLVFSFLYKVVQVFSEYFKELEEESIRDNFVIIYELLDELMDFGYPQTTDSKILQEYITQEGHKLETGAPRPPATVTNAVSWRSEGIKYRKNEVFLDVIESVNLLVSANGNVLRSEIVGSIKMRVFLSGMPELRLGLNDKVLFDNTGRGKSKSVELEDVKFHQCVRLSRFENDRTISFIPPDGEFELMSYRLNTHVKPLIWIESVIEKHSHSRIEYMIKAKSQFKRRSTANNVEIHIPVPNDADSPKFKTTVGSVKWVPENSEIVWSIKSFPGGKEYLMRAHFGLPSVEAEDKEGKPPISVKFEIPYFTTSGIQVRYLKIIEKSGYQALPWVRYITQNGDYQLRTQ

[4] = biological target: T4, Rab38 WT in pGBT9, yeast two-hybrid bait (UniProt P57729)
T4 sequence: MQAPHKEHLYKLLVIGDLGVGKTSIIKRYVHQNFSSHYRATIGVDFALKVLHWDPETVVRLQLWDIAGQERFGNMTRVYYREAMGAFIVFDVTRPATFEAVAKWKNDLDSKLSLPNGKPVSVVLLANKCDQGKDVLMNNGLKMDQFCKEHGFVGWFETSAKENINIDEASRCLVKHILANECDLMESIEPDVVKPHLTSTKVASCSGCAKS

[5] = biological target: T5, RabIF in pGBT9, yeast two-hybrid bait (human) (UniProt P47224)
T5 sequence: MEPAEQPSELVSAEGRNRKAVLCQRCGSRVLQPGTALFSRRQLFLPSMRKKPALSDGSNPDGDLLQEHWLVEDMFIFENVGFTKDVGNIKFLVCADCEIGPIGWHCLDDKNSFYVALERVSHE

[6] = biological target: T6, Rab32 Q85L, Y95A (switch 2 mutant) in pGBT9 (UniProt Q13637)
T6 sequence: T1 sequence with Q85L, Y95A

- binding [1]: binds
- binding [2]: binds
- binding [3]: no binding
- binding [4]: binds
- binding [5]: no binding
- binding [6]: no binding
Substance: OCA7 (oculocutaneous albinism type 7 protein) in pGAD424, yeast two-hybrid prey (human)

— paper PMC9703636
